# Several values for one entry are separate records, joined by “and”; a condition that tells them apart may be missing. Equal entries are not always repeated. In all, about 410,000 compounds went through this assay and about 18,000 (4.4%) were called active. Inconclusive means that the source gave no clear call. Such entries were picked first, then a sample of the others. No stated cut-off is given here; in the data, active means activity change below about -60%; inconclusive means no clear call, values can overlap the other calls; inactive means above about -39%.
# Experiment: qHTS Assay for inhibitors of the human cytomegalovirus (HCMV)
# Conditions: HFF cells, HCMV-luciferase reporter, 72 h; at 57.5 µM; active compounds read low
# How it was run: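 Two-dose cell screen: HFF monolayers treated with compounds and infected with luciferase-expressing HCMV at 1 PFU/cell, 72 h at 37C, then lysed for luciferase measurement.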
# On the % scale 0 is the no-effect control and ±100 the full control effect.
row,Structure (SMILES),"activity change, negative = inhibition"
1,CC[C@H]1CN(C)C[C@@]2(C(=O)OC)Cc3c([nH]c4ccccc34)C(=O)C[C@@H]12,inconclusive: -42.2%
2,CCCCc1ccc(NC(=O)CSc2nnc(C)c(=O)n2N)cc1,inactive: -8.34%
3,Cc1c(C(=O)N2CCC(C)CC2)oc2ccc3c(c12)C(O)CC1(CCCCC1)O3 (stereo unspecified),active: -70.2%
4,COc1ccc(C(=O)N/N=C(\C)CC(=O)Nc2cccc(C(F)(F)F)c2)cc1,inactive: 21.4%
5,CCOC(=O)C1CCN(C(=O)c2c(C)nn(-c3ccc(F)cc3)c2-n2cccc2)CC1,inactive: -0.852%
6,CC(NC(=O)CN(C)CC(=O)Nc1ccc(F)c(F)c1F)c1ccccc1 (stereo unspecified),inactive: -35.2%
7,O=C(OCC(=O)N1CCCC1=O)c1ccc(F)c(S(=O)(=O)N2CCOCC2)c1,inactive: 6.39%
8,CCOC(=O)C1(CC2CCCCO2)CCN(C(=O)Nc2ccccc2)CC1 (stereo unspecified),inactive: -37.5%
9,COc1ccc(NS(=O)(=O)c2ccc3nc(COc4ccc(Cl)c(C)c4)[nH]c3c2)cc1,inconclusive: -44.3%
10,Cc1noc(C)c1NC(=O)N(C)C[C@@H]1Oc2ccc(NC(=O)Cc3cn(C)c4ccccc34)cc2CC(=O)N([C@H](C)CO)C[C@@H]1C,inconclusive: -42.5%
11,O=C1C=C(NNC(=O)c2ccncc2)CC(c2ccccc2)C1 (stereo unspecified),inconclusive: -52%
12,C/C=C/C(=O)OCC(=O)Nc1cc(-c2cc(C)c(C)cc2C)nn1-c1ccccc1,inactive: 6.64%
13,Cc1ccc(C(=O)NC2CCCc3ccccc32)o1 (stereo unspecified),inactive: 20.1%
14,CCN(C(=O)CSc1nnc2ccccn12)C1CCS(=O)(=O)C1 (stereo unspecified),inconclusive: -48.1%
15,CCc1noc(C)c1C(=O)Nc1ccc(S(=O)(=O)N2CCCC(C)C2)cc1 (stereo unspecified),inconclusive: -53.3%
16,CC1(C)CC(N=c2cc(-c3ccccc3)oc3ccc(Cl)cc23)CC(C)(C)N1,active: -98.9%
17,COc1ccccc1CNC(=O)CSc1ccc(Br)cc1,inconclusive: -45.4%
18,CC(C)C[C@@H]1Cc2[nH][nH]c(=O)c2[C@H](C(C)C)O1,inconclusive: -43.5%
19,COc1ccc2nc(C)cc(N3CCC(C(N)=O)CC3)c2c1,inconclusive: -51.7%

# Exported tab-delimited: entries from further up
row	Structure (SMILES)	activity change, negative = inhibition
12	C/C=C/C(=O)OCC(=O)Nc1cc(-c2cc(C)c(C)cc2C)nn1-c1ccccc1	inactive: 6.64%
15	CCc1noc(C)c1C(=O)Nc1ccc(S(=O)(=O)N2CCCC(C)C2)cc1 (stereo unspecified)	inconclusive: -53.3%

# (continued)

row,Structure (SMILES),"activity change, negative = inhibition"
1,CCNC(=S)Nc1ccc2cn[nH]c2c1,inconclusive: -49.8%
3,COc1ccc2c(c1)CC/C=C(/C)CC(CO)O2 (stereo unspecified),inactive: -0.443%
4,O=C(c1cc(Cl)ccc1Cl)N1CCN(c2ccccn2)CC1,inconclusive: -47%
5,Fc1ccc2[nH]c3c(N4CCN(c5ccccc5)CC4)ncnc3c2c1,active: -97.3%
6,O=C(OCc1ccccc1)c1cccnc1Cl,inconclusive: -50.1%
7,Cc1cc(=O)[nH]c(Cc2ccc(OC(C)C)cc2)n1,inconclusive: -41.3%
8,CSc1nc(N)n2nc(C)cc2n1,inactive: 3.96%
9,O=C(Nc1cccnc1)c1cccc(-c2cc3ccccc3oc2=O)c1,inactive: 30%
10,CCOc1ccc(C2C(C#N)=C(C)NC3=C2C(=O)c2ccccc23)cc1 (stereo unspecified),inconclusive: -56.3%
11,Cc1noc(C)c1S(=O)(=O)N(CC(=O)NCCc1ccc(Cl)cc1)c1ccc(C(C)C)cc1,inactive: 5.14%
12,CCCc1ccc(NC(=O)C2CCCN(c3cnccn3)C2)cc1 (stereo unspecified),inconclusive: -59.8% and inconclusive: -41.2%
13,Cc1ccc(Cn2c(CNC(=O)c3ccc(Cl)c([N+](=O)[O-])c3)nc3cccnc32)cc1,inconclusive: -42.4%
14,CCCCOC(=O)C[N+](C)(C)CCOC1CC2CCC1(C)C2(C)C (stereo unspecified),inconclusive: -46.5%
15,CCOc1ccc(S(=O)(=O)Nc2cc(Cl)ccc2O)cc1,inconclusive: -49.1%
16,CN1CCN(C(c2ccc(C(F)(F)F)cc2)c2ccc3cccnc3c2O)CC1 (stereo unspecified),active: -96.7%
17,COc1ccc(S(=O)(=O)NC2CCCCC2)c(C)c1C,inconclusive: -45.3%
18,COc1ccc(OC)c(-c2nc3c(C)n[nH]c(=O)c3[nH]2)c1,inconclusive: -44.9%
19,O=C(NCCN1CCC(n2c(=O)[nH]c3ccccc32)CC1)C(c1ccccc1)c1ccccc1,inconclusive: -43.7%

row,Structure (SMILES),"activity change, negative = inhibition"
1,Cc1ccc(-n2ncc(C(=O)NCCN3CCN(C)CC3)c2C2CCN(C(=O)OC(C)(C)C)CC2)cc1,inconclusive: 0%
2,O=C(Nc1ccc(N2CCCC2)cc1)c1ccc(Br)cc1,inactive: 104%
3,COc1ccc(C(=O)c2c3ccc([N+](=O)[O-])cc3[n+]([O-])n2CCCN)cc1,active: -65.8%
4,C#CC(CC)(CC)NC(=O)c1ccc(Br)s1,inconclusive: -50.3%
5,CCOCCCn1c(SCC(=O)Nc2ccc(CC)cc2)nc2ccccc2c1=O,inconclusive: -41.8%
6,CCOCCCNC(=O)c1ccc(N(C)S(=O)(=O)c2ccc(OC)cc2)cc1,active: -103%
7,Oc1ccc(N2CCN(C(c3cccs3)c3nnnn3CCc3ccccc3)CC2)cc1 (stereo unspecified),inconclusive: -55.2%
8,COc1ccc(CN(C)C(=O)/C=C/c2ccc(S(=O)(=O)N3CCCCCC3)cc2)cc1,inconclusive: -55.6%
9,COc1cc2ncnc(NCc3cccc(F)c3F)c2cc1OC,inconclusive: -57.1%
10,CCc1cc(=O)[nH]c(SCc2nc(-c3cccc(Cl)c3)no2)n1,inactive: -30.5%
11,Cc1cccc(OCC(=O)Nc2ccc3c(c2)nc(CN2CCCCC2)n3C)c1,inconclusive: -46.5%
12,C[C@H]1CN([C@@H](C)CO)C(=O)CCCn2nncc2CO[C@@H]1CN(C)C(=O)Nc1ccc(N2CCN(C)CC2)cc1,inactive: -20.2%
13,O=S(=O)(c1ccc(-c2csc(=Nc3ccc(F)cc3)n2CCCCCCO)cc1)N1CCCC1,active: -101%
14,COc1cccc(/C=C2\NC(=O)NC2=O)c1O,inactive: 45.4%
15,Cc1nnc(NC(=O)CSC2=NN3CCCC(=O)N=C3S2)s1,inconclusive: -40.3%
16,Cc1ccc(-c2cc(C(=O)NCCCN3CCOCC3)c3ccccc3n2)cc1C,active: -92.1%
17,COc1ccc(C(=O)O)cc1NS(=O)(=O)c1cccc2nsnc12,inactive: -3.59%
18,C/C(=N\N=C(N)N)c1ccc(Cl)cc1Cl,inconclusive: -51.8%

# Source: PubChem BioAssay AID1259415 (National Center for Advancing Translational Sciences (NCATS), 2018)
